From the supplement of paper PMC7666118 come the findings set out here.

The chains behind the UniProt entries cited, without tags or fusion partners. Where a name states a change or a piece, a line headed by the entry shows the natural chain unless it says otherwise.
UniProt P48382: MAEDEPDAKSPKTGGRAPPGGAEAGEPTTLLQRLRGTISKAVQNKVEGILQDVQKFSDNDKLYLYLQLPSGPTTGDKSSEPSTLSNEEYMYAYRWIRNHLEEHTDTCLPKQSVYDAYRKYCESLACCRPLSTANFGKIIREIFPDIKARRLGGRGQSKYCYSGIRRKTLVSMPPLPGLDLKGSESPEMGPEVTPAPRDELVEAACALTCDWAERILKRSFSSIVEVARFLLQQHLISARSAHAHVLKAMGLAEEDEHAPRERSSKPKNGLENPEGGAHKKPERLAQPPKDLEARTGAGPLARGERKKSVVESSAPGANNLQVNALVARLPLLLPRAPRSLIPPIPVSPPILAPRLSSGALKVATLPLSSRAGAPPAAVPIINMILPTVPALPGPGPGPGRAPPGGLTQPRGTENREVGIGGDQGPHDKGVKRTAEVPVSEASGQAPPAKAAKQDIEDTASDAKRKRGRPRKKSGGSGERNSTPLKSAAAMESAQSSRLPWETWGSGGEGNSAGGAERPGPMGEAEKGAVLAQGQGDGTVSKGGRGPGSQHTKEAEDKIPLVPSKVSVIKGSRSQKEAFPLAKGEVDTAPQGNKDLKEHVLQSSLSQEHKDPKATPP
UniProt Q8IZ73: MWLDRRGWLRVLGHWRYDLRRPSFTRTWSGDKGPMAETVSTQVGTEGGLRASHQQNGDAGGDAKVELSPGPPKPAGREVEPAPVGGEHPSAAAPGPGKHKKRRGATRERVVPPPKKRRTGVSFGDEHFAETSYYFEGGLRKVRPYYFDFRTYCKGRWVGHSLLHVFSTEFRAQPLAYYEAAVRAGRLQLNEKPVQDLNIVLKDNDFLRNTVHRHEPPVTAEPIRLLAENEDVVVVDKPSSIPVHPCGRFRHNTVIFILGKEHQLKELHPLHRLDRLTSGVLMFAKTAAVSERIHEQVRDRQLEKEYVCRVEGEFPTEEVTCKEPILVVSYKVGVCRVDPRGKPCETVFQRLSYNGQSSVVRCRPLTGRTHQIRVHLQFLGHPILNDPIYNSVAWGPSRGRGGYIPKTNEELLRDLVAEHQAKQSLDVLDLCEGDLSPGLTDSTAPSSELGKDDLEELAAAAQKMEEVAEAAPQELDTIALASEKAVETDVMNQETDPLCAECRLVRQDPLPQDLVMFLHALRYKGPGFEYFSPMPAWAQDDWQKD
UniProt O43353, whole entry: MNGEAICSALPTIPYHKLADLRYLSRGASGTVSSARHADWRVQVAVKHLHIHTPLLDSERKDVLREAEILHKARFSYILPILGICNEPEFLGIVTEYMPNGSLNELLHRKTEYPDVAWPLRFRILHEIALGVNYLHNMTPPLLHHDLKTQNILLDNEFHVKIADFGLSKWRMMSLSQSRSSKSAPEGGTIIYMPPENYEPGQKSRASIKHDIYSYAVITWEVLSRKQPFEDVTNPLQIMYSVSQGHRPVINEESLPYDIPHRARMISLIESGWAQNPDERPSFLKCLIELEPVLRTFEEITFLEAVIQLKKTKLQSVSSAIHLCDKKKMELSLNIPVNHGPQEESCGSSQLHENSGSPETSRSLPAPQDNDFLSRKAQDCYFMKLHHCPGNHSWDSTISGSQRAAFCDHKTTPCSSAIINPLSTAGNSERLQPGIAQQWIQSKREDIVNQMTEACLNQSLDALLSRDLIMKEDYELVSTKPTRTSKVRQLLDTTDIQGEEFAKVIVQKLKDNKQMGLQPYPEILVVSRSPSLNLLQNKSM
UniProt O75116: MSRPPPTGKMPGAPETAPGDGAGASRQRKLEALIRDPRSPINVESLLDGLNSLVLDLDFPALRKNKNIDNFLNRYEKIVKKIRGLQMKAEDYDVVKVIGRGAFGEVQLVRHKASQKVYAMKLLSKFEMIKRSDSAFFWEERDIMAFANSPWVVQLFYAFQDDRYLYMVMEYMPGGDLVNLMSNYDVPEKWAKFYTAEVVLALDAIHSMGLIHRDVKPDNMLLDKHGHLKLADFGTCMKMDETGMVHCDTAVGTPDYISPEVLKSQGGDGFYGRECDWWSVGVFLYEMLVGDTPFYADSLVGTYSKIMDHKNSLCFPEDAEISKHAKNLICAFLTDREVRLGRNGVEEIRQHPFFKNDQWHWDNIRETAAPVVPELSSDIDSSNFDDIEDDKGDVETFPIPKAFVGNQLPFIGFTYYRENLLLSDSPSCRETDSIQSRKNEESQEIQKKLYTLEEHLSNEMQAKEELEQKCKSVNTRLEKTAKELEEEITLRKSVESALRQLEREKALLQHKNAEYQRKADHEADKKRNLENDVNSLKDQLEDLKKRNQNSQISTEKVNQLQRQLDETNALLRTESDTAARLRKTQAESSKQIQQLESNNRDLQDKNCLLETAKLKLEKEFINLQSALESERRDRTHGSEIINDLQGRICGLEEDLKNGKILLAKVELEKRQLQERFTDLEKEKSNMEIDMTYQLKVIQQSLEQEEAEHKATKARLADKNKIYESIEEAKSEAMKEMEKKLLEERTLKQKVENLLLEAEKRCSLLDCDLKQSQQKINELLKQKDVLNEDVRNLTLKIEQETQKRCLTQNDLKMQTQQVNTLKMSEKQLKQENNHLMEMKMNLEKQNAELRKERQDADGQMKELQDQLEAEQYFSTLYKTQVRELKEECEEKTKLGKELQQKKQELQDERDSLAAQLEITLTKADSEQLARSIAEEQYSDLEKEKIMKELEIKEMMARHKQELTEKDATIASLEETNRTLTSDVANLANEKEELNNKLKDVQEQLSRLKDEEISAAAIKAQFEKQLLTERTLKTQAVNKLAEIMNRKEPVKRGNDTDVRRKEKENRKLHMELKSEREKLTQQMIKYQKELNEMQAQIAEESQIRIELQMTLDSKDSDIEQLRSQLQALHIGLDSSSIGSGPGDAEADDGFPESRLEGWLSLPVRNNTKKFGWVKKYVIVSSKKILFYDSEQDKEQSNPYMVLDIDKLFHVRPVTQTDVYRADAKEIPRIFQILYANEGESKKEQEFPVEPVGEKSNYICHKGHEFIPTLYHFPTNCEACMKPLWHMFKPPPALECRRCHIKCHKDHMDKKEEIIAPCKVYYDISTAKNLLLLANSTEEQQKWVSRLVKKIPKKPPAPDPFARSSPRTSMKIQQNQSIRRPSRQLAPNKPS
UniProt Q6NUM9: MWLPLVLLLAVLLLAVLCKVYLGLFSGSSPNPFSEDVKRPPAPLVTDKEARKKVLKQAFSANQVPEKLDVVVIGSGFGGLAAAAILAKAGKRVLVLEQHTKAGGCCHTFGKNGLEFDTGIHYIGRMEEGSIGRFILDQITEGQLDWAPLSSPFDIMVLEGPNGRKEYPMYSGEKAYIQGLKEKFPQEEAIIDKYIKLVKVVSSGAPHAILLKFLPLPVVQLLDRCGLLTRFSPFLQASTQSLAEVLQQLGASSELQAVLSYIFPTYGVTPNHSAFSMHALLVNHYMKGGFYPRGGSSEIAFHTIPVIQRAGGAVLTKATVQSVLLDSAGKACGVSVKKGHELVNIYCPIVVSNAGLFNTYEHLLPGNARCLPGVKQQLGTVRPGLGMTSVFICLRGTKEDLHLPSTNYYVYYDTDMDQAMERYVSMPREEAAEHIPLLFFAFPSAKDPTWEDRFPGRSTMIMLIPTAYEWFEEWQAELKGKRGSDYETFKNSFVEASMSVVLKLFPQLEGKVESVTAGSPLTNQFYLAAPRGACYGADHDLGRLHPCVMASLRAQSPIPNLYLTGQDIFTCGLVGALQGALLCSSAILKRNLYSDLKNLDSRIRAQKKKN
UniProt O15258: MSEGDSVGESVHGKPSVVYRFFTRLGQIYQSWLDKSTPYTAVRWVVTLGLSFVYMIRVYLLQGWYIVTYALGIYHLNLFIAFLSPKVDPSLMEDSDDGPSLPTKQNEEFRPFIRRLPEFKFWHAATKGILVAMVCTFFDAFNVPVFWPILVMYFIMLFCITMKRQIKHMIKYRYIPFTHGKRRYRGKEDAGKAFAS
UniProt O75792: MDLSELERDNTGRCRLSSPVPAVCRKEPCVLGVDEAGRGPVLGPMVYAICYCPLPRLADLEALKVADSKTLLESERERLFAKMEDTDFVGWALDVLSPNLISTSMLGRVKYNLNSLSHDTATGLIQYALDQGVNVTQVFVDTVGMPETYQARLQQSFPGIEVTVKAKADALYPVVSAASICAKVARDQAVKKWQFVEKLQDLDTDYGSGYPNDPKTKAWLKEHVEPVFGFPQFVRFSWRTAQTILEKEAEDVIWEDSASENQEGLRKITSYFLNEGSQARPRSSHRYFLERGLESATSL
UniProt Q96BH1: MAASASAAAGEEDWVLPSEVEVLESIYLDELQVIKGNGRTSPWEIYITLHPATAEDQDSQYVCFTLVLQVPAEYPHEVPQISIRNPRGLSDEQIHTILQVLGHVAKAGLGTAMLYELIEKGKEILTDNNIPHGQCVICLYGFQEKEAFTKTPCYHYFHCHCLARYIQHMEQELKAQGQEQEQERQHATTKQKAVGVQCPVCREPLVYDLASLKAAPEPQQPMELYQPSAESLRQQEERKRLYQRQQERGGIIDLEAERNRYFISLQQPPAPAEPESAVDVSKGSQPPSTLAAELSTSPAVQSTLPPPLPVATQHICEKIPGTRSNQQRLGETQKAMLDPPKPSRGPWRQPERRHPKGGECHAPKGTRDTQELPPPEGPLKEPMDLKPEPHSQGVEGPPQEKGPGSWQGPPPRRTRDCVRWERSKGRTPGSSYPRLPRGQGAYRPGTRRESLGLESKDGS
UniProt Q7L4I2: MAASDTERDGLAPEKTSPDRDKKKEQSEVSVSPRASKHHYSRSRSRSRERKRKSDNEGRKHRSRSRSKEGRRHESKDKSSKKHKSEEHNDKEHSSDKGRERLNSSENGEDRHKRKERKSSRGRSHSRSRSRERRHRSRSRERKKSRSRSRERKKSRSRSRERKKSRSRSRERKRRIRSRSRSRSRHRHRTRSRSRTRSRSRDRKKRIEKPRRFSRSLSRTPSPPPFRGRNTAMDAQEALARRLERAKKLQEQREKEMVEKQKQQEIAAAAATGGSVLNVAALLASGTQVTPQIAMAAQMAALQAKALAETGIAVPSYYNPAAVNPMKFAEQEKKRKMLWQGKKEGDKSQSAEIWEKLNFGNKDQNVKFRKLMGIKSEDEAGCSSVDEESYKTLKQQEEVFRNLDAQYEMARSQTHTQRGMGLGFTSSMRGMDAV
UniProt Q9BWH6: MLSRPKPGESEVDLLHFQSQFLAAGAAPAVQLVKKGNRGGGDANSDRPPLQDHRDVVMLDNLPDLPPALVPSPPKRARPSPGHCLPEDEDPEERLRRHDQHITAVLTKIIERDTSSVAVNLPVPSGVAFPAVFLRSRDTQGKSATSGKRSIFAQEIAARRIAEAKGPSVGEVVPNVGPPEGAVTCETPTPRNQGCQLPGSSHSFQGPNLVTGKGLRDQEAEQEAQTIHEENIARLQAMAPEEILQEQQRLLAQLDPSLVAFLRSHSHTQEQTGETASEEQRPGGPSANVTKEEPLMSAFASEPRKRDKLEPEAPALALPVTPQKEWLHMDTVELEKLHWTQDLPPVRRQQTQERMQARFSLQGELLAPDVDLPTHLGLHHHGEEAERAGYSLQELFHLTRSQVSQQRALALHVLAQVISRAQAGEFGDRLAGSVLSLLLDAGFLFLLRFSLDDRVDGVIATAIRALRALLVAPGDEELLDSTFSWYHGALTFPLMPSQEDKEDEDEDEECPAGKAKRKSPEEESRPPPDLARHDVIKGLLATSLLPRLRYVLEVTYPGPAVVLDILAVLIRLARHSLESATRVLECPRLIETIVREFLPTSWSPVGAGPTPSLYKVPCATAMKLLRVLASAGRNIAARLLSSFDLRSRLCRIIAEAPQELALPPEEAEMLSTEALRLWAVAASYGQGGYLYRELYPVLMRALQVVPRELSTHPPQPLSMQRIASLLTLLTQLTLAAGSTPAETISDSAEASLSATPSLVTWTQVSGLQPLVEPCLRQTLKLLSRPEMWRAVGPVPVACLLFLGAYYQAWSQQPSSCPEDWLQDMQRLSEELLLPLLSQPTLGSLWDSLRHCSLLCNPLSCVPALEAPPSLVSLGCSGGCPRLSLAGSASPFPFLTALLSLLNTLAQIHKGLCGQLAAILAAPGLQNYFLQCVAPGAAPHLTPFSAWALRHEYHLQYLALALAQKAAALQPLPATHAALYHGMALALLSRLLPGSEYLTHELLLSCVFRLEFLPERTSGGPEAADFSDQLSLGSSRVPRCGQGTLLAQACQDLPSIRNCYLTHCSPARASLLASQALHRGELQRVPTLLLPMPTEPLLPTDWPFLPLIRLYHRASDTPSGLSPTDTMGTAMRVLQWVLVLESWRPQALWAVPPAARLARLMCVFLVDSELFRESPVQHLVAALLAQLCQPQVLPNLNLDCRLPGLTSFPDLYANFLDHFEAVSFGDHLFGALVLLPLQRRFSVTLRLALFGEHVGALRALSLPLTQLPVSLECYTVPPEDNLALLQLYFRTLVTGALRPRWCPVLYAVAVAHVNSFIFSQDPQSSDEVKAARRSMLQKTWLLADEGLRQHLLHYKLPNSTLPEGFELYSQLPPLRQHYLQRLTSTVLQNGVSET

This is one part of the list.

Compound in the test: COc1ccc(Cn2ccc3ccc(C(=O)NO)cc32)cc1
The test is described as follows: dose-dependent thermal stabilisation call (2D-TPP, DLPTP, 10% FDR) (binary (1 = stabilised)); higher = stabilised by the compound. As to conditions: system: HL-60 intact cells; concentration range 0.04-10 µM.
Regarding RFX5 (UniProt P48382), the “dose-dependent thermal stabilisation call” value was inactive: 0. To RUVBL1 (UniProt Q9Y265) belongs inactive: 0.

Consider RCOR3 (UniProt Q9P2K3), for which the “dose-dependent thermal stabilisation call” value was inactive: 0. The result for REXO2 (UniProt Q9Y3B8) reads inactive: 0; that for RNF139 (UniProt Q8WU17), inactive: 0. Turning to RPA2 (UniProt P15927), the “dose-dependent thermal stabilisation call” value was inactive: 0.

As for RPUSD2 (UniProt Q8IZ73), the “dose-dependent thermal stabilisation call” value is inactive: 0. With RPL8 (UniProt P62917), the “dose-dependent thermal stabilisation call” value is inactive: 0. For the target RIPK2 (UniProt O43353), the “dose-dependent thermal stabilisation call” value is inactive: 0. The result for ROCK2 (UniProt O75116) reads inactive: 0; that for RWDD1 (UniProt Q9H446), inactive: 0; that for RETSAT (UniProt Q6NUM9), inactive: 0. With RPIA (UniProt P49247), the “dose-dependent thermal stabilisation call” value was inactive: 0. As to RRM1 (UniProt P23921), the “dose-dependent thermal stabilisation call” value is inactive: 0.

Turning to RCCD1 (UniProt A6NED2), the “dose-dependent thermal stabilisation call” value is inactive: 0. In the case of RER1 (UniProt O15258), the “dose-dependent thermal stabilisation call” value was inactive: 0. Take RPL13 (UniProt P26373): the “dose-dependent thermal stabilisation call” value was inactive: 0.

Regarding RNASEH2A (UniProt O75792), the “dose-dependent thermal stabilisation call” value is inactive: 0.

For RNF25 (UniProt Q96BH1), the “dose-dependent thermal stabilisation call” value is inactive: 0.

As to RRM2 (UniProt P31350), the “dose-dependent thermal stabilisation call” value is inactive: 0. As to RSRC2 (UniProt Q7L4I2), the “dose-dependent thermal stabilisation call” value is inactive: 0. Regarding RRP1 (UniProt P56182), the “dose-dependent thermal stabilisation call” value is inactive: 0. For the target RG9MTD1 (UniProt Q7L0Y3), the “dose-dependent thermal stabilisation call” value was inactive: 0. In the case of REPS1 (UniProt Q96D71), the “dose-dependent thermal stabilisation call” value is inactive: 0. With RPAP1 (UniProt Q9BWH6), the “dose-dependent thermal stabilisation call” value was inactive: 0. As to RPS28 (UniProt P62857), the “dose-dependent thermal stabilisation call” value was inactive: 0. In the case of RPL27 (UniProt P61353), the “dose-dependent thermal stabilisation call” value is inactive: 0. As for RPS21 (UniProt P63220), the “dose-dependent thermal stabilisation call” value is active: 1.

Consider S1PR4 (UniProt O95977), for which the “dose-dependent thermal stabilisation call” value was inactive: 0. For RHOXF2 (UniProt Q9BQY4), the “dose-dependent thermal stabilisation call” value was inactive: 0. With ROCK1 (UniProt Q13464), the “dose-dependent thermal stabilisation call” value was inactive: 0. On to RPAP3 (UniProt Q9H6T3), for which the “dose-dependent thermal stabilisation call” value is inactive: 0.

For the target RPL3 (UniProt P39023), the “dose-dependent thermal stabilisation call” value is inactive: 0. In the case of RCC1 (UniProt P18754), the “dose-dependent thermal stabilisation call” value is inactive: 0. To RDBP (UniProt P18615) belongs inactive: 0; to RPA3 (UniProt P35244), inactive: 0; to RFC5 (UniProt P40937), inactive: 0. To RPL9 (UniProt P32969) belongs inactive: 0.
